# Measurements reported in PubChem BioAssay AID1508588 (Peter MacCallum Cancer Centre, 2020).
# Purpose: 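Knock-downs boosting vemurafenib effects on melanoma cell growth or lactate release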 (primary screen)
# System: human WM266.4 melanoma cells (BRAF V600 mutant)
# Reagent: siRNA pool against human genes, 40 nM
# Timing: 96 h from transfection to read-out
# Challenge: vemurafenib 300 nM (about IC25), added 48 h after transfection, for 48 h; comparison arm got DMSO vehicle only
# Read-out: 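Ratios to non-targeting siRNA for cell gain, counted as DAPI nuclei after minus before drug and averaged over two replicates, and for absorbance-read medium lactate per cell; both binned into fold-change classes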
# Reading the numbers: cell gain with vemurafenib: higher = more cell gain than with non-targeting siRNA; lactate per cell with vemurafenib: higher = more lactate made per cell
# Rule for the call: 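a knock-down counts as enhancing when its fold-change classes with vehicle and with vemurafenib, taken together, show a stronger drug effect on cell gain or lactate per cell; exact class pairs not stated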
# Calls: active = enhances vemurafenib effect; inactive = no enhancement seen
# In all, the deposit lists about 18,000 reagents; this is an unselected part. 790 of them (4.4%) count as active. 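Calls rest on a combination of fold-change classes in drug and vehicle arms, not all shown here.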 Reagents against one gene are numbered here.
gene knocked down,pool no.,cell gain with vemurafenib,lactate per cell with vemurafenib,activity call
PLGLB2 (plasminogen like B2),1,0.77,0.69,inactive
DEFB121 (defensin beta 121),1,0.27,1.91,inactive
NOL12 (nucleolar protein 12),1,0.37,1.14,inactive
GTPBP1 (GTP binding protein 1),1,0.82,0.82,inactive
TTC9B (tetratricopeptide repeat domain 9B),1,0.31,1.8,inactive
CLDN1 (claudin 1),1,0.21,1.18,inactive
PCDHB16 (protocadherin beta 16),1,1.03,0.8,inactive
MICU2 (mitochondrial calcium uptake 2),1,0.59,0.61,inactive
IPMK (inositol polyphosphate multikinase),1,0.54,1.26,inactive
IRF1 (interferon regulatory factor 1),1,1.11,0.67,inactive
LBP (lipopolysaccharide binding protein),1,0.31,1.58,inactive
EN1 (engrailed homeobox 1),1,0.88,1.07,inactive
ANKRD13C (ankyrin repeat domain 13C),1,0.62,0.3,active
OR8U9 (olfactory receptor family 8 subfamily U member 9),1,-0.15,0.26,inactive
SEBOX (SEBOX homeobox),1,0.95,0.52,inactive
ZNF713 (zinc finger protein 713),1,0.34,0.61,inactive
NIBAN2 (niban apoptosis regulator 2),1,0.59,0.56,inactive
SLAMF7 (SLAM family member 7),1,0.76,0.5,inactive
MRPL10 (mitochondrial ribosomal protein L10),1,0.38,1.92,inactive
"PLAU (plasminogen activator, urokinase)",1,0.56,1,inactive
ATP6V1B1 (ATPase H+ transporting V1 subunit B1),1,0.36,1.59,inactive
GTF2E2 (general transcription factor IIE subunit 2),1,0.43,0.64,inactive
BBS10 (Bardet-Biedl syndrome 10),1,0.73,0.3,inactive
SPATA2L (spermatogenesis associated 2 like),1,0.26,1.81,inactive
CT47A11 (cancer/testis antigen family 47 member A11),1,0.83,0.98,inactive
FAM89B (family with sequence similarity 89 member B),1,0.26,0.72,inactive
NPY5R (neuropeptide Y receptor Y5),1,0.09,0.62,inactive
DDO (D-aspartate oxidase),1,1.01,1.24,inactive
YIPF5 (Yip1 domain family member 5),1,0.69,0.8,inactive
ETAA1 (ETAA1 activator of ATR kinase),1,0.52,0.78,inactive
PALM2AKAP2 (PALM2 and AKAP2 fusion),1,0.72,1.25,inactive
PALM2AKAP2 (PALM2 and AKAP2 fusion),2,0.92,0.66,active
PALM2AKAP2 (PALM2 and AKAP2 fusion),3,0.76,0.75,inactive
THOC7 (THO complex subunit 7),1,0.96,0.78,inactive
CDK19 (cyclin dependent kinase 19),1,0.57,0.7,inactive
OR52N2 (olfactory receptor family 52 subfamily N member 2),1,0.41,0.78,inactive
AR (androgen receptor),1,0.84,0.99,inactive
FIBP (FGF1 intracellular binding protein),1,0.92,0.94,inactive
CLEC3A (C-type lectin domain family 3 member A),1,0.5,1.55,inactive
OR2J2 (olfactory receptor family 2 subfamily J member 2),1,0.03,0.41,inactive
TTC7A (tetratricopeptide repeat domain 7A),1,0.35,1.62,inactive
RBM11 (RNA binding motif protein 11),1,0.45,1.23,inactive
AHCYL2 (adenosylhomocysteinase like 2),1,0.47,1.04,inactive
PLAGL1 (PLAG1 like zinc finger 1),1,0.09,0.32,active
"PCDHGB1 (protocadherin gamma subfamily B, 1)",1,0.78,1.03,inactive
OR6N2 (olfactory receptor family 6 subfamily N member 2),1,0.46,0.4,inactive
NLGN1 (neuroligin 1),1,0.56,0.84,inactive
SLCO1C1,1,1.03,0.64,inactive
BAIAP2L2 (BAR/IMD domain containing adaptor protein 2 like 2),1,0.67,1.56,inactive
SERTM1 (serine rich and transmembrane domain containing 1),1,0.71,1.12,inactive
ZNF444 (zinc finger protein 444),1,0.66,0.86,inactive
REN (renin),1,0.92,0.99,inactive
NOP56 (NOP56 ribonucleoprotein),1,0.39,1.29,inactive
TM2D1 (TM2 domain containing 1),1,0.88,0.78,inactive
LGALS13 (galectin 13),1,0.59,1.5,inactive
RBM6 (RNA binding motif protein 6),1,0.52,0.76,inactive
MSRB3 (methionine sulfoxide reductase B3),1,0.12,1.71,inactive

9 entries from above, limited to “lactate per cell with vemurafenib”:
NOL12 (nucleolar protein 12)	1.14
GTPBP1 (GTP binding protein 1)	0.82
TTC9B (tetratricopeptide repeat domain 9B)	1.8
CLDN1 (claudin 1)	1.18
PCDHB16 (protocadherin beta 16)	0.8
MICU2 (mitochondrial calcium uptake 2)	0.61
IPMK (inositol polyphosphate multikinase)	1.26
IRF1 (interferon regulatory factor 1)	0.67
LBP (lipopolysaccharide binding protein)	1.58
